Experimental data reported in publication PMC6187632, “A glutaredoxin domain fused to the radical-generating subunit of ribonucleotide reductase (RNR) functions as an efficient RNR reductant” (The Journal of Biological Chemistry, 2018).
No constants are given. Whether binding was seen depends on the method and setting. Binding can be weak; no strength is given.

Amino acid sequences for entries named in this document (tags omitted). A change or cut given only in a name is not applied to a line headed by its entry.
UniProt K1LAT4: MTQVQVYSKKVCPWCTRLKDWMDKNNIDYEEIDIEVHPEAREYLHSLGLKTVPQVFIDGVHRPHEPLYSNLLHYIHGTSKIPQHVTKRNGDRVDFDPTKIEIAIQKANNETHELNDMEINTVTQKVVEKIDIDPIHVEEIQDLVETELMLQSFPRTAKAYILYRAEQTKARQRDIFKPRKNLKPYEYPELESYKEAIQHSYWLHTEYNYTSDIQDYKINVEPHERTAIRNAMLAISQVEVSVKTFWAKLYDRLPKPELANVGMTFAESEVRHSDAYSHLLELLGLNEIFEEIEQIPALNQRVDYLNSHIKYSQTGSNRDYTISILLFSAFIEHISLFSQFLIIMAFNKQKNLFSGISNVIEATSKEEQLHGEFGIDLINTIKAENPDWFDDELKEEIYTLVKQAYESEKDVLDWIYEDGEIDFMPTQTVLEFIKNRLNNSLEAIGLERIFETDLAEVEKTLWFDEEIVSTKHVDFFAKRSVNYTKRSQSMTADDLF
UniProt K1MC37: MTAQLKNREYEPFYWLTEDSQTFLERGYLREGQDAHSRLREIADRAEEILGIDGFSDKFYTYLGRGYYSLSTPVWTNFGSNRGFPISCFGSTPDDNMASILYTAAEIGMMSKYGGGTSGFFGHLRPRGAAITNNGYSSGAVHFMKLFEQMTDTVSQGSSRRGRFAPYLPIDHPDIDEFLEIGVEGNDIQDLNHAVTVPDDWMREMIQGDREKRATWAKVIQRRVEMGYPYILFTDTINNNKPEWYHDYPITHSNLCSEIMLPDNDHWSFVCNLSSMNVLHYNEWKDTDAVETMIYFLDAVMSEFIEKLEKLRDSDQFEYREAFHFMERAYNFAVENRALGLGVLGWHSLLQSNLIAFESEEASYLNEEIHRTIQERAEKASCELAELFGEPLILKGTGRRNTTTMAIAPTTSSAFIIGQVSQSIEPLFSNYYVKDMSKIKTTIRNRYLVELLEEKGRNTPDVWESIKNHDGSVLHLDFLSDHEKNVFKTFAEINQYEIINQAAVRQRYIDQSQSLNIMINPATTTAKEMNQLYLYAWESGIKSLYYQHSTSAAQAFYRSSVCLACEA

Key:
[1] = molecular target: Facklamia ignava NrdB (Grx::ATP-cone::NrdB fusion protein, NrdBi) (Facklamia ignava) (UniProt K1LAT4); test: SEC; Superdex 200 10/300, no effector; 50 mM KCl, 10 mM MgCl2, 0.1 mM DTT, 50 mM Tris-HCl pH 7.6, room temperature; NrdA 5 and 10 uM, NrdB 1.25-10 uM, mixture 10 uM of each; both purified
[2] = molecular target: Facklamia ignava NrdB (Grx::ATP-cone::NrdB fusion protein, NrdBi) (Facklamia ignava) (UniProt K1LAT4); test: SEC; Superdex 200 10/300, 3 mM ATP in the mobile phase; 50 mM KCl, 10 mM MgCl2, 0.1 mM DTT, 50 mM Tris-HCl pH 7.6, room temperature; single subunits 5 and 10 uM, mixture 10 and 20 uM of each; both purified
[3] = molecular target: Facklamia ignava NrdB (Grx::ATP-cone::NrdB fusion protein, NrdBi) (Facklamia ignava) (UniProt K1LAT4); test: SEC; Superdex 200 10/300, 0.1 mM dATP in the mobile phase; 50 mM KCl, 10 mM MgCl2, 0.1 mM DTT, 50 mM Tris-HCl pH 7.6, room temperature; single subunits 5 and 10 uM, mixture 10 and 20 uM of each; both purified
[4] = molecular target: Facklamia ignava NrdB (Grx::ATP-cone::NrdB fusion protein, NrdBi) (Facklamia ignava) (UniProt K1LAT4); test: GEMMA (gas-phase electrophoretic macromolecule analysis); no effector; 0.05 mg/ml protein (0.025 mg/ml of each in mixtures), 20 mM ammonium acetate pH 7.8, 1 mM DTT, 0.005% Tween 20, room temperature; both purified
[5] = molecular target: Facklamia ignava NrdB (Grx::ATP-cone::NrdB fusion protein, NrdBi) (Facklamia ignava) (UniProt K1LAT4); test: GEMMA (gas-phase electrophoretic macromolecule analysis); with 100 uM ATP and equimolar Mg acetate; 0.05 mg/ml protein (0.025 mg/ml of each in mixtures), 20 mM ammonium acetate pH 7.8, 1 mM DTT, 0.005% Tween 20, room temperature; both purified
[6] = molecular target: Facklamia ignava NrdB (Grx::ATP-cone::NrdB fusion protein, NrdBi) (Facklamia ignava) (UniProt K1LAT4); test: GEMMA (gas-phase electrophoretic macromolecule analysis); with 50 uM dATP and equimolar Mg acetate; 0.05 mg/ml protein (0.025 mg/ml of each in mixtures), 20 mM ammonium acetate pH 7.8, 1 mM DTT, 0.005% Tween 20, room temperature; both purified

Measured: binding

Facklamia ignava NrdA (NrdAi) (from UniProt K1MC37) (enzyme)
binds: all assays above
